Assay results from the supplement of paper PMC10849652.
This is one part of the list.

Chains of the proteins cited; added tags and fusions are not shown. Lines headed by an entry give the natural chain unless they say otherwise; changes in a name come on top.
UniProt P49815: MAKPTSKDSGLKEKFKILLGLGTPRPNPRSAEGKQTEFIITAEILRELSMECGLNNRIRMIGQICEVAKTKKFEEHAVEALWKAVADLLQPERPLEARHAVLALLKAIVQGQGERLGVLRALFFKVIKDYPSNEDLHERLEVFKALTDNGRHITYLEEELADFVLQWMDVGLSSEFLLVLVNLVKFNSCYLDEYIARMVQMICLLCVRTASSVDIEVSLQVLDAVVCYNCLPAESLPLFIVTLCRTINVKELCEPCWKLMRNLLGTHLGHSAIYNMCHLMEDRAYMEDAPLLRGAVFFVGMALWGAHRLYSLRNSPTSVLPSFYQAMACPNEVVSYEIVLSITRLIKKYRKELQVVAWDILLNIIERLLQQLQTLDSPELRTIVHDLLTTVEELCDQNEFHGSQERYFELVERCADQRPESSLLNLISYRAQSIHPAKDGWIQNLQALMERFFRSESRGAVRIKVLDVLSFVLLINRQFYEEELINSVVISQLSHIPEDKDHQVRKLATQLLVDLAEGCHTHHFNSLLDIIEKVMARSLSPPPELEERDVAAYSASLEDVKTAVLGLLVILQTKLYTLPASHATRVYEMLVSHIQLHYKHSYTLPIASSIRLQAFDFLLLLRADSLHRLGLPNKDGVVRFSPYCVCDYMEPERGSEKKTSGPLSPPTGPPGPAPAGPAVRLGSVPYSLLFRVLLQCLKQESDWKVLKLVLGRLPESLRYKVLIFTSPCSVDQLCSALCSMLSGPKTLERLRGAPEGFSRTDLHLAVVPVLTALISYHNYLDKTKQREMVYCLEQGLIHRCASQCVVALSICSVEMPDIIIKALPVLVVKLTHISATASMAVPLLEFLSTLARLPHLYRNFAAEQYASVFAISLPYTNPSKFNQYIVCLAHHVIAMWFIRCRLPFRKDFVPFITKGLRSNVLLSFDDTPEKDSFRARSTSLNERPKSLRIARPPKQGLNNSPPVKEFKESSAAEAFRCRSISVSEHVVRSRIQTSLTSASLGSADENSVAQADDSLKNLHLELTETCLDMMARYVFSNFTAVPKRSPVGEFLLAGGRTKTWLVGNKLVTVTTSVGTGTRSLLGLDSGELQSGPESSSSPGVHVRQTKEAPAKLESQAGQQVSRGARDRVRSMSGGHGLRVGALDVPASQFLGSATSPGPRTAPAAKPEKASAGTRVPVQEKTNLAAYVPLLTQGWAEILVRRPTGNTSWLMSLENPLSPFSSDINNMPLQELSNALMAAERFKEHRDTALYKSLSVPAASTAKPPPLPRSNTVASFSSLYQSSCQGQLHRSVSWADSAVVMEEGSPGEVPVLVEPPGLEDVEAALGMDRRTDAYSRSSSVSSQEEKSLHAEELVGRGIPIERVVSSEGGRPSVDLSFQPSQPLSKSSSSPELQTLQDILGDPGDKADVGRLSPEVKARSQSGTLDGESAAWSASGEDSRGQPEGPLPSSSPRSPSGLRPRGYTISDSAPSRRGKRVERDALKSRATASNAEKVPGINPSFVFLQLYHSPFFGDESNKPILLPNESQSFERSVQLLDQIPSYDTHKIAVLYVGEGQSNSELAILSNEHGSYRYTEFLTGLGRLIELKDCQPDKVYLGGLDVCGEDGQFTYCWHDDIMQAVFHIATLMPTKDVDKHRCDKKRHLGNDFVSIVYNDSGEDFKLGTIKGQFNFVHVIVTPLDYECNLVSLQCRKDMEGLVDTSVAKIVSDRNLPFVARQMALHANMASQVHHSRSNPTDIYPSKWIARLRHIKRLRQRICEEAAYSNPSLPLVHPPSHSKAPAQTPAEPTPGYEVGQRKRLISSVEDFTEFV
UniProt O95801: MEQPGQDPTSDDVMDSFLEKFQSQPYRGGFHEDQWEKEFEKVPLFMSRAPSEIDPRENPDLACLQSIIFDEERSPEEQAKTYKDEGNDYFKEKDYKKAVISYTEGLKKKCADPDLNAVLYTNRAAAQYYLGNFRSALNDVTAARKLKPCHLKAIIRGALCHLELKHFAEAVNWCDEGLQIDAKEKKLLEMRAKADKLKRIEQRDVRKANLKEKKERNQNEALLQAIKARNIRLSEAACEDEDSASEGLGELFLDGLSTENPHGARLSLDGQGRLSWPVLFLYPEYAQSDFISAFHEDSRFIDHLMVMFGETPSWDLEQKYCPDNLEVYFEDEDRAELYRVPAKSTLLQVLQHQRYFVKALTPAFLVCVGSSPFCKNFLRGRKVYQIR
UniProt Q15629: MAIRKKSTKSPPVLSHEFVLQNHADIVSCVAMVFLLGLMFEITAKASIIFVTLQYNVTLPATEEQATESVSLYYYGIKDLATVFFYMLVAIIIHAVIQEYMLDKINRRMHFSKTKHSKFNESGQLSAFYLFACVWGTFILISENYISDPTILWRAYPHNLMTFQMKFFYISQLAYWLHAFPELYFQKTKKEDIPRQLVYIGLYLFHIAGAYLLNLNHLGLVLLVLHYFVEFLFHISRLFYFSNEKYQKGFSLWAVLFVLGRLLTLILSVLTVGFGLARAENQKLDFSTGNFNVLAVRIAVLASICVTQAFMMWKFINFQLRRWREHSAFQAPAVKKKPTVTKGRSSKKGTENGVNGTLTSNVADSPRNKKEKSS
UniProt Q96FX7: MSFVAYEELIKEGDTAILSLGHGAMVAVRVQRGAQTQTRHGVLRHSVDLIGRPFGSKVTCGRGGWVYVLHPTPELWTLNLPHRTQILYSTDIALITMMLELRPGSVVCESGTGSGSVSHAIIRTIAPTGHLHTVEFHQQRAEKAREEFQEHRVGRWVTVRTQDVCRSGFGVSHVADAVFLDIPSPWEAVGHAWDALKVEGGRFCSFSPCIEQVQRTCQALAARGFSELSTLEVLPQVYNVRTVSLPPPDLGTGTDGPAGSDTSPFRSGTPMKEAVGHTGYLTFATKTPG
UniProt Q9UL33, whole entry, looked up: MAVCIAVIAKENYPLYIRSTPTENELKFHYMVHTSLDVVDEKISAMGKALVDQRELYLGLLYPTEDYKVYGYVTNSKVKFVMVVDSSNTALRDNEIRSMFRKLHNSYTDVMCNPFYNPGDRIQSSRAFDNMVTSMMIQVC
UniProt Q9H892: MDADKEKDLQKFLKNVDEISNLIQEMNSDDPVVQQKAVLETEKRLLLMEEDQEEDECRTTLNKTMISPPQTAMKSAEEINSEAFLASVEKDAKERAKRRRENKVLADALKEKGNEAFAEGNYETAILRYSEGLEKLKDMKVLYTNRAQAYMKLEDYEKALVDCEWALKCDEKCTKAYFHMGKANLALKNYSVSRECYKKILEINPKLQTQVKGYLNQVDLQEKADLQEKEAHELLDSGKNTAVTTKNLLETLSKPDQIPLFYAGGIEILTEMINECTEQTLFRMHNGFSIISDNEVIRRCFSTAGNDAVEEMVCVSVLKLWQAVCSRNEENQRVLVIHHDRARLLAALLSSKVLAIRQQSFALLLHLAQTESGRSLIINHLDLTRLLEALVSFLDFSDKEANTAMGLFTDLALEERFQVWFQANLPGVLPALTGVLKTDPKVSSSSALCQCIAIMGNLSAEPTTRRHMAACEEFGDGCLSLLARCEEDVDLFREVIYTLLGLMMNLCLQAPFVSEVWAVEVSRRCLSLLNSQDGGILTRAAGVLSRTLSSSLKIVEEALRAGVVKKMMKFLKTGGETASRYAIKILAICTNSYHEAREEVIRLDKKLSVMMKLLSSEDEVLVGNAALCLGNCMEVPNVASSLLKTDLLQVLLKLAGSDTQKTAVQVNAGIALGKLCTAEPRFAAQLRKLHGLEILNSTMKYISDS
UniProt Q13049: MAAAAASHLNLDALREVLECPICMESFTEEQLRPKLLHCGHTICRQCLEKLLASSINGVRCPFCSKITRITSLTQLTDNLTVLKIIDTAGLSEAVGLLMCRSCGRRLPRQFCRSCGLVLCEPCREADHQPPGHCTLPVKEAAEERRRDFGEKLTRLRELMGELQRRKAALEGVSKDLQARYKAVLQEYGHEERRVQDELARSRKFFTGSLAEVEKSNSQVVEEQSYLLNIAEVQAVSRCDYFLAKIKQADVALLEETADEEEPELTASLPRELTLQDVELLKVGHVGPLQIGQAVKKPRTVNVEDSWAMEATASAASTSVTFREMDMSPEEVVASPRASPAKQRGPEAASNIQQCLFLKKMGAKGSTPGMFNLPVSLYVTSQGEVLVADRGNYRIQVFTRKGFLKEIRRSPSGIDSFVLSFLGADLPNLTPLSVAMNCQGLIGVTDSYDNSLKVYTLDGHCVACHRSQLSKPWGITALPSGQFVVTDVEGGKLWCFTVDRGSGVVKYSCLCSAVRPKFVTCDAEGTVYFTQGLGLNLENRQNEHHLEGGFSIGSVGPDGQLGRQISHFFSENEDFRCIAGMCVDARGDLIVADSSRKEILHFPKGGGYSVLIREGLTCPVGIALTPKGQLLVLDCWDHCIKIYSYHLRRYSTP
UniProt O95857: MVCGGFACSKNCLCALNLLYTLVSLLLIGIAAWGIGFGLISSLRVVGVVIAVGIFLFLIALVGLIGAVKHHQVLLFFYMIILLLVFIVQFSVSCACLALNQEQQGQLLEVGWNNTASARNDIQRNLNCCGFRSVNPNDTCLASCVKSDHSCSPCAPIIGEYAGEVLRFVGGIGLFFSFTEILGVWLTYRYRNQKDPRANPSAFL
UniProt Q14258, whole entry, looked up: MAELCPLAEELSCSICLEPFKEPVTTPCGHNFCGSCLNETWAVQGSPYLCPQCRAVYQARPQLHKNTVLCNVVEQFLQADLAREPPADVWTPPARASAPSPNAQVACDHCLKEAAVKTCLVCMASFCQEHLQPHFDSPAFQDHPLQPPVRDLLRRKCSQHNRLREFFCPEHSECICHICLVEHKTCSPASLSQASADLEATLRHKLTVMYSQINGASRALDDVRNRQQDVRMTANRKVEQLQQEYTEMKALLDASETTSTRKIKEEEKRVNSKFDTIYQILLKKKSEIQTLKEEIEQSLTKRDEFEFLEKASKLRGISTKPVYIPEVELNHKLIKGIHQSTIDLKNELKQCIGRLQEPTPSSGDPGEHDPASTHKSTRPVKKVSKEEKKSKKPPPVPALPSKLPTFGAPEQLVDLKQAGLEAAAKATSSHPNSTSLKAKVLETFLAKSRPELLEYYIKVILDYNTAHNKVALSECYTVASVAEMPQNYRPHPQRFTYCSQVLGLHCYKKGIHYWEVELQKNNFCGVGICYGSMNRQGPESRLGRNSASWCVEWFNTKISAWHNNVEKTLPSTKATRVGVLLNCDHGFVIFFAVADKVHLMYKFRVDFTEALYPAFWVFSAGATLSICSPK
UniProt Q96F44: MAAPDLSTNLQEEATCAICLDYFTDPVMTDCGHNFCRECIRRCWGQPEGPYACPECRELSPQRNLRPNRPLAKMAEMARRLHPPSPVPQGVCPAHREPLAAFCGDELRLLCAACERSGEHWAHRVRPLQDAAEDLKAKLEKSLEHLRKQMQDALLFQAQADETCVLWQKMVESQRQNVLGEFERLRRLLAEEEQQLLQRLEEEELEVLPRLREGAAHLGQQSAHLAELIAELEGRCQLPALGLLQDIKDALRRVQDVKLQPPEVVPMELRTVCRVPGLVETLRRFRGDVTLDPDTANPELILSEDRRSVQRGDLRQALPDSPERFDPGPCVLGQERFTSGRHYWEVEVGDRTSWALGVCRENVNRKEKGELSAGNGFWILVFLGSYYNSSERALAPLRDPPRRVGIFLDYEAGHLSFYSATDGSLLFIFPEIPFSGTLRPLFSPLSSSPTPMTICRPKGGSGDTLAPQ
UniProt Q99598: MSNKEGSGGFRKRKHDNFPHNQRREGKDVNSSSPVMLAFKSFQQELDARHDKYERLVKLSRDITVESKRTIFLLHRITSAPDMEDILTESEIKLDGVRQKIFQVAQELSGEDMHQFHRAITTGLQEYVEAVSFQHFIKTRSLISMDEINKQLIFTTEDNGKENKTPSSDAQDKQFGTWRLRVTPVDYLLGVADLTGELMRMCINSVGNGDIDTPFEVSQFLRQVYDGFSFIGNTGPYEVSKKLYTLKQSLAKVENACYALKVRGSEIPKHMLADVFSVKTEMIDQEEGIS
UniProt A5PLN9: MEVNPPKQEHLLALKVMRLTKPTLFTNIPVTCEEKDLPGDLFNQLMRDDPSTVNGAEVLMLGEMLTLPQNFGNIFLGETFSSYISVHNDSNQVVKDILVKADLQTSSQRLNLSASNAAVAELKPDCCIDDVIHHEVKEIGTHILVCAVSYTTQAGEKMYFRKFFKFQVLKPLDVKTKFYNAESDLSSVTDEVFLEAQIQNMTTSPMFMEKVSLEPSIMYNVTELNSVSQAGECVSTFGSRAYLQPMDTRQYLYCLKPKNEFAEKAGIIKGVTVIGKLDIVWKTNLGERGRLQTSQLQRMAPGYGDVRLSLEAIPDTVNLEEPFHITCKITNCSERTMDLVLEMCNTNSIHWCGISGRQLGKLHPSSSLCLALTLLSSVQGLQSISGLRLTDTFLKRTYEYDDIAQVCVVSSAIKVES
UniProt Q8N5M4: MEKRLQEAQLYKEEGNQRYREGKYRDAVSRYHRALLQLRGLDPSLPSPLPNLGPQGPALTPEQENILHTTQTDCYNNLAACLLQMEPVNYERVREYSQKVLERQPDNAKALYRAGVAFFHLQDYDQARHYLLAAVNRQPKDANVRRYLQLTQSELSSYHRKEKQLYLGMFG

Each target was assayed with CC[C@@H]1C(=O)N(C)c2cnc(Nc3ccc(C(=O)NC4CCN(C)CC4)cc3OC)nc2N1C1CCCC1 (assay: log2 fold change, soluble protein after heating vs DMSO (PISA); higher = thermal stabilisation; K562 lysate, 10 uM; active = over 0.2 and 3.5 SD of the protein, either way, in both replicates (recomputed)).
Outline: (§1)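 Thermal stability, expressed as log-two fold change relative to solvent controls, is given from duplicates. Crude K562 extract in PBS pH 7.4 with 1 mM MgCl2, at 1 mg/mL protein, was treated with 10 μM compound for 30 min and heated in aliquots for 3 min across 48°C-58°C. After pooling, adjustment to 0.5% NP-40 at 4°C and centrifugation at 21,000xg for 90 min, supernatant protein was measured by TMTpro 16plex LC-MS/MS with channel sums equalised.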
With TRRAP (UniProt Q9Y4A5) the log2 fold change was inactive: 0.046. For TSEN54 (UniProt Q7Z6J9), the log2 fold change was inactive: -0.024. TRAPPC2 isoform 3 (UniProt P0DI81) was tested, and the log2 fold change was inactive: -0.015. In the case of TSC2 isoform 4 (UniProt P49815), the log2 fold change is reported as inactive: -0.004. For TRAPPC6A isoform 2 (UniProt O75865), the log2 fold change was active: -0.288. For TRMT11 (UniProt Q7Z4G4), the log2 fold change was inactive: 0.029. With TTC4 (UniProt O95801) the log2 fold change was inactive: 0.008. With TRAM1 (UniProt Q15629) the log2 fold change was inactive: -0.064. For TRIP10 isoform 2 (UniProt Q15642), the log2 fold change was inactive: -0.083. TRMT61A (UniProt Q96FX7) was tested, and the log2 fold change was inactive: 0.068. TRAPPC2L (UniProt Q9UL33) was tested, and the log2 fold change was inactive: 0.022. In the case of TTC12 isoform 2 (UniProt Q9H892), the log2 fold change is reported as inactive: -0.049. In the case of TSPO (UniProt P30536), the log2 fold change is reported as inactive: -0.094. TTC5 (UniProt Q8N0Z6) was tested, and the log2 fold change was inactive: -0.03. In the case of TRIM32 (UniProt Q13049), the log2 fold change is reported as inactive: 0.062. With TRAPPC11 (UniProt Q7Z392) the log2 fold change was inactive: -0.001. With TSC1 (UniProt Q92574) the log2 fold change was inactive: -0.008. In the case of TRIM33 isoform 2 (UniProt Q9UPN9), the log2 fold change is reported as inactive: -0.008. With TRNT1 (UniProt Q96Q11) the log2 fold change was inactive: -0.015. In the case of TRMT61B (UniProt Q9BVS5), the log2 fold change is reported as inactive: 0.047. For TRIM5 (UniProt Q9C035), the log2 fold change was inactive: -0.063. In the case of TSPAN13 (UniProt O95857), the log2 fold change is reported as inactive: 0.177. With TRIM25 (UniProt Q14258) the log2 fold change was inactive: -0.024. With TRPC4AP (UniProt Q8TEL6) the log2 fold change was inactive: 0.03. For TSC22D2 (UniProt O75157), the log2 fold change was inactive: -0.029. For TRIM11 (UniProt Q96F44), the log2 fold change was inactive: -0.001. With TSNAX (UniProt Q99598) the log2 fold change was inactive: 0.021. In the case of TRAPPC13 isoform 4 (UniProt A5PLN9), the log2 fold change is reported as inactive: -0.027. TRIP13 (UniProt Q15645) was tested, and the log2 fold change was inactive: -0.083. For TSR2 (UniProt Q969E8), the log2 fold change was inactive: 0.041. In the case of TRMT5 (UniProt Q32P41), the log2 fold change is reported as inactive: -0.035. TTC9C (UniProt Q8N5M4) was tested, and the log2 fold change was inactive: 0.047. In the case of TRAF6 (UniProt Q9Y4K3), the log2 fold change is reported as inactive: 0.016.

The targets below were run with CC[C@@H]1C(=O)N(C)c2cnc(Nc3ccc(C(=O)N[C@H]4CC[C@H](N5CCN(CC6CC6)CC5)CC4)cc3OC)nc2N1C(C)C [volasertib] in the same assay as above.
Outline: as §1
TRRAP (UniProt Q9Y4A5) was tested, and the log2 fold change was inactive: -0.032. In the case of TSEN54 (UniProt Q7Z6J9), the log2 fold change is reported as inactive: -0.038. In the case of TRAPPC2 isoform 3 (UniProt P0DI81), the log2 fold change is reported as inactive: -0.02. For TSC2 isoform 4 (UniProt P49815), the log2 fold change was inactive: -0.114. With TRAPPC6A isoform 2 (UniProt O75865) the log2 fold change was inactive: -0.035. With TRMT11 (UniProt Q7Z4G4) the log2 fold change was inactive: -0.002. With TTC4 (UniProt O95801) the log2 fold change was inactive: -0.024. For TRAM1 (UniProt Q15629), the log2 fold change was inactive: 0.027. In the case of TRIP10 isoform 2 (UniProt Q15642), the log2 fold change is reported as inactive: -0.045. TRMT61A (UniProt Q96FX7) was tested, and the log2 fold change was inactive: -0.068. In the case of TRAPPC2L (UniProt Q9UL33), the log2 fold change is reported as inactive: 0.006. With TTC12 isoform 2 (UniProt Q9H892) the log2 fold change was inactive: 0.063. In the case of TSPO (UniProt P30536), the log2 fold change is reported as inactive: 0.05. With TTC5 (UniProt Q8N0Z6) the log2 fold change was inactive: -0.014. TRIM32 (UniProt Q13049) was tested, and the log2 fold change was inactive: -0.155. In the case of TRAPPC11 (UniProt Q7Z392), the log2 fold change is reported as inactive: -0.063. With TSC1 (UniProt Q92574) the log2 fold change was inactive: -0.08. TRIM33 isoform 2 (UniProt Q9UPN9) was tested, and the log2 fold change was inactive: -0.039. In the case of TRNT1 (UniProt Q96Q11), the log2 fold change is reported as inactive: -0.033. TRMT61B (UniProt Q9BVS5) was tested, and the log2 fold change was inactive: 0.035. TRIM5 (UniProt Q9C035) was tested, and the log2 fold change was inactive: 0.018. With TSPAN13 (UniProt O95857) the log2 fold change was inactive: 0.032. For TRIM25 (UniProt Q14258), the log2 fold change was inactive: -0.006. In the case of TRPC4AP (UniProt Q8TEL6), the log2 fold change is reported as inactive: -0.049. In the case of TSC22D2 (UniProt O75157), the log2 fold change is reported as inactive: -0.006. For TRIM11 (UniProt Q96F44), the log2 fold change was inactive: -0.043. For TSNAX (UniProt Q99598), the log2 fold change was inactive: 0.009. In the case of TRAPPC13 isoform 4 (UniProt A5PLN9), the log2 fold change is reported as inactive: -0.047. With TRIP13 (UniProt Q15645) the log2 fold change was inactive: -0.089. In the case of TSR2 (UniProt Q969E8), the log2 fold change is reported as inactive: 0.008. For TRMT5 (UniProt Q32P41), the log2 fold change was inactive: -0.074. With TTC9C (UniProt Q8N5M4) the log2 fold change was inactive: -0.043. With TRAF6 (UniProt Q9Y4K3) the log2 fold change was inactive: 0.027.

The targets below were run with CCn1c(C(=O)N(C2CC2)C2CC2)cc2c3c(ncn3C)c(Nc3cc(C)n(C)n3)nc21 in the same assay as above.
Outline: as §1
In the case of TRRAP (UniProt Q9Y4A5), the log2 fold change is reported as inactive: -0.018. For TSEN54 (UniProt Q7Z6J9), the log2 fold change was inactive: 0.001. In the case of TRAPPC2 isoform 3 (UniProt P0DI81), the log2 fold change is reported as inactive: 0.03. TSC2 isoform 4 (UniProt P49815) was tested, and the log2 fold change was inactive: -0.025. In the case of TRAPPC6A isoform 2 (UniProt O75865), the log2 fold change is reported as inactive: -0.072. With TRMT11 (UniProt Q7Z4G4) the log2 fold change was inactive: 0.014. For TTC4 (UniProt O95801), the log2 fold change was inactive: 0.007. In the case of TRAM1 (UniProt Q15629), the log2 fold change is reported as inactive: -0.076. In the case of TRIP10 isoform 2 (UniProt Q15642), the log2 fold change is reported as inactive: -0.002. TRMT61A (UniProt Q96FX7) was tested, and the log2 fold change was inactive: -0.077. With TRAPPC2L (UniProt Q9UL33) the log2 fold change was inactive: -0.053. TTC12 isoform 2 (UniProt Q9H892) was tested, and the log2 fold change was inactive: -0.121. TSPO (UniProt P30536) was tested, and the log2 fold change was inactive: -0.002. For TTC5 (UniProt Q8N0Z6), the log2 fold change was inactive: 0.018. In the case of TRIM32 (UniProt Q13049), the log2 fold change is reported as inactive: -0.028. For TRAPPC11 (UniProt Q7Z392), the log2 fold change was inactive: -0.003. With TSC1 (UniProt Q92574) the log2 fold change was inactive: -0.031. With TRIM33 isoform 2 (UniProt Q9UPN9) the log2 fold change was inactive: 0.023. TRNT1 (UniProt Q96Q11) was tested, and the log2 fold change was inactive: 0.01. For TRMT61B (UniProt Q9BVS5), the log2 fold change was inactive: -0.038. For TRIM5 (UniProt Q9C035), the log2 fold change was inactive: 0.007. For TSPAN13 (UniProt O95857), the log2 fold change was inactive: 0.046. For TRIM25 (UniProt Q14258), the log2 fold change was inactive: -0.007. In the case of TRPC4AP (UniProt Q8TEL6), the log2 fold change is reported as inactive: -0.015. TSC22D2 (UniProt O75157) was tested, and the log2 fold change was inactive: -0.066. In the case of TRIM11 (UniProt Q96F44), the log2 fold change is reported as inactive: 0.022. In the case of TSNAX (UniProt Q99598), the log2 fold change is reported as inactive: -0.036. TRAPPC13 isoform 4 (UniProt A5PLN9) was tested, and the log2 fold change was inactive: -0.001. For TRIP13 (UniProt Q15645), the log2 fold change was inactive: 0.034. For TSR2 (UniProt Q969E8), the log2 fold change was inactive: -0.067. For TRMT5 (UniProt Q32P41), the log2 fold change was inactive: 0.075. In the case of TTC9C (UniProt Q8N5M4), the log2 fold change is reported as inactive: -0.051. For TRAF6 (UniProt Q9Y4K3), the log2 fold change was inactive: -0.007.
